# Source: article PMC7819943, “Rice protein-binding microarrays: a tool to detect cis-acting elements near promoter regions in rice”
# The other results are listed elsewhere or left out.
# Molecular target: T1, OsSMF1 (Oryza sativa, UniProt Q6ZLB0 1-436)
# T1 sequence: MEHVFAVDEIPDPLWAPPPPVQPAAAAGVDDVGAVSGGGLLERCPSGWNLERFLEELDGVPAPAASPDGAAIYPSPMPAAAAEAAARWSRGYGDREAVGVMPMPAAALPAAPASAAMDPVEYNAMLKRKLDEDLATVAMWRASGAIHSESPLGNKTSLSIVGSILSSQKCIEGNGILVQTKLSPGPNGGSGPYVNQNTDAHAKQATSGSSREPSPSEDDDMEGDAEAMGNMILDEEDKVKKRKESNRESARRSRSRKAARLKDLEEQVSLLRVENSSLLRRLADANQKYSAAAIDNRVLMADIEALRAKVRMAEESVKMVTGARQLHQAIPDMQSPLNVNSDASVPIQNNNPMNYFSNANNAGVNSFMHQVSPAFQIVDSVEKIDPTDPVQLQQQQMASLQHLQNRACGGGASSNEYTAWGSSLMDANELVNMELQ
# Assay: protein-binding microarray (RPBM); PBS, 2% BSA, 51.3 ng/ul salmon testes DNA, 50 uM zinc acetate, 200 nM TF, 25 C, 1 h; high values mean tight binding
# Conditions: protein: recombinant; tags: N-terminal polyhistidine and DsRed monomer fusion (pET32a); chain copies: 2; label: CyDye5-dUTP incorporated in the synthesized complementary strand; 3' TTTTT single-stranded linker to array surface; dsDNA, one strand shown
# In short: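 Polyhistidine-tagged DsRed fusions of transcription factors, joined at the N-terminus, were expressed in E. coli BL21-CodonPlus and isolated on Ni–NTA. They were incubated at 200 nM for 1 h at 25 °C on a custom Agilent array, double-stranded and BSA-blocked, in PBS with 2% BSA, salmon testes DNA and 50 µM zinc acetate. The binding signal is per-feature fluorescence intensity (arbitrary units) read on an Axon 4000B scanner after washing.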
row,Sequence,binding signal
1,GTAGTGATGTCACTATTTAATAGTTGTATAATAAATACTCCGGAGTCACCTAGTGCAG,17800 fluorescence intensity (a.u.)
2,AGAATAGTGTTACACACACGCGTACTCCGTGCCTTCCCGTCGGAGTCACCTAGTGCAG,3280 fluorescence intensity (a.u.)
3,ATTCACAGGCCTTTCTTAATTAAAACGGTAGATGGAGCAACGGAGTCACCTAGTGCAG,28400 fluorescence intensity (a.u.)
4,GATGTGCTGGTGTCCGACGCGCCGGCTGACGAGGCTGCAACGGAGTCACCTAGTGCAG,3400 fluorescence intensity (a.u.)
5,TGAGAAGTGAGAACCCAATGTTGGCTGTGTTTAGATCCAACGGAGTCACCTAGTGCAG,7100 fluorescence intensity (a.u.)
6,ATGTGCATACTACTACTTCTTACGTAGCATAGTGATTTGTCGGAGTCACCTAGTGCAG,3150 fluorescence intensity (a.u.)
7,TGAGGGCCGGGGCAGCCTGTTGAATCACCAGGGATTTGCACGGAGTCACCTAGTGCAG,3190 fluorescence intensity (a.u.)
8,TCTTCTGGTAATGGAGATGGAGATTACCAAAACTCAATACCGGAGTCACCTAGTGCAG,17500 fluorescence intensity (a.u.)
9,AGAACACATAACTAGCATATCAGGGCCTTCCAAGACTGCTCGGAGTCACCTAGTGCAG,26500 fluorescence intensity (a.u.)
10,TCTCTCTCTCTCTCTCTCTCTCGCGCCCCACCCAGATCTGCGGAGTCACCTAGTGCAG,3600 fluorescence intensity (a.u.)
11,CTGGTGCATACACAGTGGGTTTGAGAATGACATGGACGCTCGGAGTCACCTAGTGCAG,4890 fluorescence intensity (a.u.)
12,CAATCCCACCTCGCGCGATGACTCCGCACCCGCCCCACCTCGGAGTCACCTAGTGCAG,7260 fluorescence intensity (a.u.)
13,CACGTGTTTTCTCGATGTCCACGTGGTGATGTGGAATTGTCGGAGTCACCTAGTGCAG,14800 fluorescence intensity (a.u.)
14,CACTTACATGGCACATCACTCCAGCTTTACCAGCATCATTCGGAGTCACCTAGTGCAG,3400 fluorescence intensity (a.u.)
15,CACCAGAGGATGGTCTCTAAGTCAATGTGACGTGCAATCCCGGAGTCACCTAGTGCAG,4140 fluorescence intensity (a.u.)
16,CCAGGCCGTCCCGGATCCACGCGCCCCGCGTGGCGGCGTCCGGAGTCACCTAGTGCAG,3590 fluorescence intensity (a.u.)
17,ATCGCACGGTACGAGCACATGACACGGACGGACTGGCTCACGGAGTCACCTAGTGCAG,3160 fluorescence intensity (a.u.)
18,ATGTAATGAACCCAATCGTCTTGGAACAGCTCTCGCCATGCGGAGTCACCTAGTGCAG,4620 fluorescence intensity (a.u.)
19,TACCAAACAGGCCCTAAATGGGCTACGAGCAACGAAGTTTCGGAGTCACCTAGTGCAG,18200 fluorescence intensity (a.u.)
20,GATGAATCGAATCCATTCCCAGCCAGCTGACGAGGTGTCTCGGAGTCACCTAGTGCAG,6070 fluorescence intensity (a.u.)
21,GCGTGGCGTGGTCACCACGACGCGTACGCCGACGGGCAGGCGGAGTCACCTAGTGCAG,3590 fluorescence intensity (a.u.)

row,Sequence,binding signal
1,CGCATGCGACAGACCATCACCGACACACGTGTGGTGGGGTCGGAGTCACCTAGTGCAG,3600 fluorescence intensity (a.u.)
2,TCTTAAGCTGATGATCTGTCTATTTCTGTGACAGTACCTCCGGAGTCACCTAGTGCAG,5030 fluorescence intensity (a.u.)
3,TATAAAATCTTGCTAAAATTTAGCAACCATACTAAAACTTCGGAGTCACCTAGTGCAG,3150 fluorescence intensity (a.u.)
4,TCCTGTGCTTACAACTCATACAGTATGCTCCTCAGAACACCGGAGTCACCTAGTGCAG,3240 fluorescence intensity (a.u.)
5,CAGAGAATCTAAGCCAAAGCTTTGATTAGATGGTGTGGTGCGGAGTCACCTAGTGCAG,3750 fluorescence intensity (a.u.)
6,CCCCTATAAAGCCATCTTTTATGTGACCACTCATGGGCTCCGGAGTCACCTAGTGCAG,3290 fluorescence intensity (a.u.)
7,AAATCTTACCTGCTCACGTGCCGTGCTGCCCGGTGTGCAGCGGAGTCACCTAGTGCAG,3900 fluorescence intensity (a.u.)
8,CTTGCGGCGATGGCCGTGGCGACCGTGGACGTGGCTGCCGCGGAGTCACCTAGTGCAG,3920 fluorescence intensity (a.u.)
9,GATCAAGCTAGCTAGTGGTACATGTACGTCCGTACGGTGCCGGAGTCACCTAGTGCAG,7000 fluorescence intensity (a.u.)
10,CCAGCTGTACGTGTGTCCCACCGTGGCGGCTATTTCGTCACGGAGTCACCTAGTGCAG,4810 fluorescence intensity (a.u.)
11,CTCGTTGGTGATGACAGTGACGGAATCCCCATGTTGACCTCGGAGTCACCTAGTGCAG,4130 fluorescence intensity (a.u.)
12,CCAAAGCTGTGCTACCACGAGAGCCCACGTCATCCCATCCCGGAGTCACCTAGTGCAG,22800 fluorescence intensity (a.u.)
13,ATAAATGTGAGAGCCACATCAGAATCTTCTTCGTTCGTTCCGGAGTCACCTAGTGCAG,6400 fluorescence intensity (a.u.)
14,TACGTGACATGCCATCGTGGCGTGCCCACGTGGAAAACAACGGAGTCACCTAGTGCAG,15000 fluorescence intensity (a.u.)
15,TTAAGATTCACATGATGTGTCCTCAGTTAGGTTTATCAGTCGGAGTCACCTAGTGCAG,3870 fluorescence intensity (a.u.)
16,GAAATGAATCTGAATACACGTGTTCATGTTTAACTCTAGACGGAGTCACCTAGTGCAG,6300 fluorescence intensity (a.u.)
17,CGCCGGTGCTGATGCTGATCGATCTTACGTCGCGTCGCGACGGAGTCACCTAGTGCAG,3280 fluorescence intensity (a.u.)
18,CTCCTTCCATTTGTACCCACGTCTGCTGTCCATTGACCGGCGGAGTCACCTAGTGCAG,6910 fluorescence intensity (a.u.)
19,ACCTCCTCAATCACACGCACATGTAATAGCTAGTCTAGTGCGGAGTCACCTAGTGCAG,3440 fluorescence intensity (a.u.)
20,CGAGAGCGAACGGCCGTCTGCCACGTCACTTTCGCCACCCCGGAGTCACCTAGTGCAG,41900 fluorescence intensity (a.u.)
21,CTCTTACAGTGACCTGATTCATCGACCTGTCACTTGTCTGCGGAGTCACCTAGTGCAG,6850 fluorescence intensity (a.u.)

# Two entries from above, with bars between the fields:
row | Sequence | binding signal
12 | CAATCCCACCTCGCGCGATGACTCCGCACCCGCCCCACCTCGGAGTCACCTAGTGCAG | 7260 fluorescence intensity (a.u.)
13 | CACGTGTTTTCTCGATGTCCACGTGGTGATGTGGAATTGTCGGAGTCACCTAGTGCAG | 14800 fluorescence intensity (a.u.)
